The values that follow come from publication PMC3851687 (2013).

The target of the experiment is T1, Lgs HD1 (amino acids 321–355) (Drosophila) (UniProt Q961D9).
T1 sequence: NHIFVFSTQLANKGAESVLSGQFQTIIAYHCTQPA
Briefly: crystal structure; dPHD-HD1 complex coexpressed in E. coli and purified; crystals grown at 19°C in 1.136 M (NH4)2SO4, 100 mM Tris pH 8.3, 200 mM NaCl; 2.7 Å; both purified.

These are yes or no findings as the source states them, for the method shown. Some entries that bind do so weakly or less than the wild type.

B1: Drosophila Pygo PHD (amino acids 747–808) (domain or fragment, UniProt Q9V9W8 747-808)
chain: IYPCGMCHKEVNDNDEAVFCESGCNFFFHRTCVGLTEAAFQMLNKEVFAEWCCDKCVSSKHI
In the case of B1, the binding result is on record as “binds”.
